Experimental data from publication PMC4618059.

By UniProt entry, the sequences of proteins in these tests, tags left out. Where a name states a change or a piece, a line headed by the entry shows the natural chain unless it says otherwise. Residues count along the entry.
UniProt Q96RW7, residues 22-5635: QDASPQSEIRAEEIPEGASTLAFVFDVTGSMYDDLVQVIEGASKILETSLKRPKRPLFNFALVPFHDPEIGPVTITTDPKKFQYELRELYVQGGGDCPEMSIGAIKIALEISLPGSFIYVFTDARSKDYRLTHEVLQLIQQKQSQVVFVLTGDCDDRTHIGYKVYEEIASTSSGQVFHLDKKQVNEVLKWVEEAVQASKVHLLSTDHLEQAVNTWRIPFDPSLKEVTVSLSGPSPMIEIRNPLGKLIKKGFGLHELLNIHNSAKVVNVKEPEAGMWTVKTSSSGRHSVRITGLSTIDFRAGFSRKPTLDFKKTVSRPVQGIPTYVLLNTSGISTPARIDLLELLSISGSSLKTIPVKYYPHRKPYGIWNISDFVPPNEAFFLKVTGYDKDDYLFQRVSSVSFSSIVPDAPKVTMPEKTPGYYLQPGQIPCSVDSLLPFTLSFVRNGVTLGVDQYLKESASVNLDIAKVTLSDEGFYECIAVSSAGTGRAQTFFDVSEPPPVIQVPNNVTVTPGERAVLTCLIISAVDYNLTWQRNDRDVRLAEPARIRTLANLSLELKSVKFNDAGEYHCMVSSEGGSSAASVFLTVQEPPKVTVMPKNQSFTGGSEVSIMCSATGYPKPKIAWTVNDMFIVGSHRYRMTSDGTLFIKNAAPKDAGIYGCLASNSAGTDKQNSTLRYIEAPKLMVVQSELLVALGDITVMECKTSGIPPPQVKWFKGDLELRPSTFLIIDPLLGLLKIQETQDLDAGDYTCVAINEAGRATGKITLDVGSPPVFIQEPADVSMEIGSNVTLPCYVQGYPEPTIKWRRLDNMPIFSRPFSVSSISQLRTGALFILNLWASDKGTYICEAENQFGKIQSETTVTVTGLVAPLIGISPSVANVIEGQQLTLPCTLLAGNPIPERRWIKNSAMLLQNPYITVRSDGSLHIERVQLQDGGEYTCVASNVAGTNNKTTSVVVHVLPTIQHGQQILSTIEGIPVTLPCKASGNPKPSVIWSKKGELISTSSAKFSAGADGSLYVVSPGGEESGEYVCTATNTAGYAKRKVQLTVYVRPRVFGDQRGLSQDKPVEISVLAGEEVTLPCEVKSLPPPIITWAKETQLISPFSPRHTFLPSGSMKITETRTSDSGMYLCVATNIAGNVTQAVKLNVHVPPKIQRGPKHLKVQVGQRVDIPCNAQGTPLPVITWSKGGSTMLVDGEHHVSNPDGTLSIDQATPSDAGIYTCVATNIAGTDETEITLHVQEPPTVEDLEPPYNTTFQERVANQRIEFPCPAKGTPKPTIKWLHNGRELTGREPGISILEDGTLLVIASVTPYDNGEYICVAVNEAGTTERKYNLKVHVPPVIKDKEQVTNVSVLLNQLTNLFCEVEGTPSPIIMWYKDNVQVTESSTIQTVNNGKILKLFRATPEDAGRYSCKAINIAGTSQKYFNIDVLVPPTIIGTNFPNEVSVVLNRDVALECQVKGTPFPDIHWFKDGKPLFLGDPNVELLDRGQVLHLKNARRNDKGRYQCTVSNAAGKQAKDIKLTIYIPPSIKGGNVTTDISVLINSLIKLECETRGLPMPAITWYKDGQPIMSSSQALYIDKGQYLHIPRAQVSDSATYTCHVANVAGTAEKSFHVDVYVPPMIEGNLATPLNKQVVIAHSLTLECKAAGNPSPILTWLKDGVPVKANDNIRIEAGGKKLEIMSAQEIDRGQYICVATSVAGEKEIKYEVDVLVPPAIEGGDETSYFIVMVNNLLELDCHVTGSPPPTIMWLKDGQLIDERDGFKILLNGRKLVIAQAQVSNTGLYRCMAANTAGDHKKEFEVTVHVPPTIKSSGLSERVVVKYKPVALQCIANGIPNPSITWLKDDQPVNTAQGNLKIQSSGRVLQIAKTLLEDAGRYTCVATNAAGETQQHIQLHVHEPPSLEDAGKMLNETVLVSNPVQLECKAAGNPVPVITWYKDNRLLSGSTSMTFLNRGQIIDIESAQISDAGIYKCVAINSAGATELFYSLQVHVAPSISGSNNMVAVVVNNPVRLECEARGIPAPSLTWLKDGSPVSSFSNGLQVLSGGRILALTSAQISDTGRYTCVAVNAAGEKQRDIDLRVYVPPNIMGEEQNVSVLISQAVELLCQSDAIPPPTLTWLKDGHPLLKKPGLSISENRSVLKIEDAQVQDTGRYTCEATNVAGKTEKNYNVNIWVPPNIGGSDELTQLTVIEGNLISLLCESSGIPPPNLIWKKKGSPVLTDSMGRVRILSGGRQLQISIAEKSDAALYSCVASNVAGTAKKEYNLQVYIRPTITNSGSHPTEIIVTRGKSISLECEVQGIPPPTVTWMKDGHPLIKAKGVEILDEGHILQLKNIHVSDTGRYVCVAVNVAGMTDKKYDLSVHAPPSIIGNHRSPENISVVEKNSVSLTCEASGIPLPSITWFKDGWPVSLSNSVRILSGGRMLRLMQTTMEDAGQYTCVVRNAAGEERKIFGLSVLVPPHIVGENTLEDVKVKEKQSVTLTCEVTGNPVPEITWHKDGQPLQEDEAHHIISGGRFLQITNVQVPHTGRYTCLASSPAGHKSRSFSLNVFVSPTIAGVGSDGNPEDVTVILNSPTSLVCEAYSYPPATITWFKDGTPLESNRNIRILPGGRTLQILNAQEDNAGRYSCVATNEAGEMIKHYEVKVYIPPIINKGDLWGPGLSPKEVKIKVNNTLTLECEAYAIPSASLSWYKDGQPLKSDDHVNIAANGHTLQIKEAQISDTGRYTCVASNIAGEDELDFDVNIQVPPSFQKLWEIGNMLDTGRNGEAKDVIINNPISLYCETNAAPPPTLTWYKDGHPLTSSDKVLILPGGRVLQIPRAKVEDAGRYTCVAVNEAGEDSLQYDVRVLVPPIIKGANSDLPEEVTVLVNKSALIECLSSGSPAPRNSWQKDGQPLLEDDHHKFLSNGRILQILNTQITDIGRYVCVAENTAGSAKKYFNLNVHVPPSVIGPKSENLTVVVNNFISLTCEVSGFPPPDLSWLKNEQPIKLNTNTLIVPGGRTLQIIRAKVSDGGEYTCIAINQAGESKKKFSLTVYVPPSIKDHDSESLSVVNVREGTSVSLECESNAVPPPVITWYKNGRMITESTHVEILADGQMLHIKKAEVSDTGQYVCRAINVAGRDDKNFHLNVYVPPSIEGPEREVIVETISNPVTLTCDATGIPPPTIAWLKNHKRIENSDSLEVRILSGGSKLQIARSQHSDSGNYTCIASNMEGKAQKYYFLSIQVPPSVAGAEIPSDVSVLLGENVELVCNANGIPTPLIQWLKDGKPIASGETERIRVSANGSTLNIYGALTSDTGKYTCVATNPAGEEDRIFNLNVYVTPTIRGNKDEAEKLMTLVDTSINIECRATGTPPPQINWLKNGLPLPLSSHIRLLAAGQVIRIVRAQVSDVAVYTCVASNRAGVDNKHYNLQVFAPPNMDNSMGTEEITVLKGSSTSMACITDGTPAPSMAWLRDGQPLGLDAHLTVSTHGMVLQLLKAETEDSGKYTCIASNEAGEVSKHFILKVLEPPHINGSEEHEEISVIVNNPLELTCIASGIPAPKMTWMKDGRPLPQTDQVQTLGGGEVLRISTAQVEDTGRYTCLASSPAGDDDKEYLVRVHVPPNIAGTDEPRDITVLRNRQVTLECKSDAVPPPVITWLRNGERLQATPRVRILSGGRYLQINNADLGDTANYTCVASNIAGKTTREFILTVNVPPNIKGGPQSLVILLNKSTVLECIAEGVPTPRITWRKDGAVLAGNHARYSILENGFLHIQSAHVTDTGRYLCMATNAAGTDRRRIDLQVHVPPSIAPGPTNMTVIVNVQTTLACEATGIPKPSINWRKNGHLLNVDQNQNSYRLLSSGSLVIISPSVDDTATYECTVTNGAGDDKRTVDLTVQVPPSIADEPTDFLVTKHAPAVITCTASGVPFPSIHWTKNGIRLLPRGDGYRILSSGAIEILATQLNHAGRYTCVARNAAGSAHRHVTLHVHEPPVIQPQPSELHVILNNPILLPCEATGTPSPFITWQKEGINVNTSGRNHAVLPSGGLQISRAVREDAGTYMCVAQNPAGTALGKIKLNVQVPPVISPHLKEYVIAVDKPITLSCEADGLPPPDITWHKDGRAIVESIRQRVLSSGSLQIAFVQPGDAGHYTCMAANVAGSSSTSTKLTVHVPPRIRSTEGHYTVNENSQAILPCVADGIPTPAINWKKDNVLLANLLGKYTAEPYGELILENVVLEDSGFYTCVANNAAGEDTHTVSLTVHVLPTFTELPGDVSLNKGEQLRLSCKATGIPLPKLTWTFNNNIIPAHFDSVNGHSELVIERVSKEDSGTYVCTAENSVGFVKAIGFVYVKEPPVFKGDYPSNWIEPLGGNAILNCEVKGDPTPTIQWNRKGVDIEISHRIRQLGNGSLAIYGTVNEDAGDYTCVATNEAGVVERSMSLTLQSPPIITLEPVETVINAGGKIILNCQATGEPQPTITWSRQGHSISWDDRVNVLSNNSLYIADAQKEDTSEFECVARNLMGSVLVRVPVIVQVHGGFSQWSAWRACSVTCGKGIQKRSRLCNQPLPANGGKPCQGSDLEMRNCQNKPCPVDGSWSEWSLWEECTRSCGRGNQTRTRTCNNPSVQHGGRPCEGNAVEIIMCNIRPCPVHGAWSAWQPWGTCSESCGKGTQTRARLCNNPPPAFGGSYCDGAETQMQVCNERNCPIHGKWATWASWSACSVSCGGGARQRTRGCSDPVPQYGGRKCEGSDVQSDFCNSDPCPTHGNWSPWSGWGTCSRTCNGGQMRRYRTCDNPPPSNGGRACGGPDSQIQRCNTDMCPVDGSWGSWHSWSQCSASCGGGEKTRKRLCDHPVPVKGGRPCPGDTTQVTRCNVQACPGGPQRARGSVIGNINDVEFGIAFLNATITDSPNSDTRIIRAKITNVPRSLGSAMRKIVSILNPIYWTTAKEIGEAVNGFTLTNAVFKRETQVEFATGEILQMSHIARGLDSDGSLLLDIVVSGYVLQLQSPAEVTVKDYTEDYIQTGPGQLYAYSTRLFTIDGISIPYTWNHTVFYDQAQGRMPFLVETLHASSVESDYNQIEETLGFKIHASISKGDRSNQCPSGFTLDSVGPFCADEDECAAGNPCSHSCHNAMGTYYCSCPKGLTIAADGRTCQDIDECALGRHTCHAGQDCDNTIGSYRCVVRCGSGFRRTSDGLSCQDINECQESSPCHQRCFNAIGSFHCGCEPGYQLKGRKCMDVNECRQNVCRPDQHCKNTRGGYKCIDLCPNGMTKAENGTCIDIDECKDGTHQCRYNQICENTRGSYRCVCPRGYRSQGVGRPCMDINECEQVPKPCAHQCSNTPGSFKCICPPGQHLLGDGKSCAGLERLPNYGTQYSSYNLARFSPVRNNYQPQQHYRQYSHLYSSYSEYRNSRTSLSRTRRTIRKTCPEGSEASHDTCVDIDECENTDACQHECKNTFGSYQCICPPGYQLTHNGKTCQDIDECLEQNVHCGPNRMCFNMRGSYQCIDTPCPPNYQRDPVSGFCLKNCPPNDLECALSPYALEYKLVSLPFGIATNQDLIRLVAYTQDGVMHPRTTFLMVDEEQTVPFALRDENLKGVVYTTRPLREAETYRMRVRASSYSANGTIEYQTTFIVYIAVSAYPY
UniProt P07339: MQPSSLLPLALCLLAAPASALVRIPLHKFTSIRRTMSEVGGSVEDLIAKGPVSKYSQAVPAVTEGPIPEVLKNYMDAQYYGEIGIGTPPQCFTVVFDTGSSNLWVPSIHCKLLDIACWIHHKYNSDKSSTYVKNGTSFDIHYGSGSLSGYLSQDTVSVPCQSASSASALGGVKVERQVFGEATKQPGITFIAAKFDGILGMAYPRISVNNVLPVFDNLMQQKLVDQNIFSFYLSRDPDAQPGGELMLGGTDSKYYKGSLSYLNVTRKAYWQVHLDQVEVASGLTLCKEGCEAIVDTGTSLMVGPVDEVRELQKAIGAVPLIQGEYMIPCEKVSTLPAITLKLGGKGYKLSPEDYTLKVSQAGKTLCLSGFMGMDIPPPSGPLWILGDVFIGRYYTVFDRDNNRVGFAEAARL
UniProt P84077: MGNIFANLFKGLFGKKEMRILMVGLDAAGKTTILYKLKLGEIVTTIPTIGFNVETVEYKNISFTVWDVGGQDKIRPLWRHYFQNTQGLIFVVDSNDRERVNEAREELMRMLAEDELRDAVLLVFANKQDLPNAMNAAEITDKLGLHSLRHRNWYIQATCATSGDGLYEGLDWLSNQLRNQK
UniProt P62137: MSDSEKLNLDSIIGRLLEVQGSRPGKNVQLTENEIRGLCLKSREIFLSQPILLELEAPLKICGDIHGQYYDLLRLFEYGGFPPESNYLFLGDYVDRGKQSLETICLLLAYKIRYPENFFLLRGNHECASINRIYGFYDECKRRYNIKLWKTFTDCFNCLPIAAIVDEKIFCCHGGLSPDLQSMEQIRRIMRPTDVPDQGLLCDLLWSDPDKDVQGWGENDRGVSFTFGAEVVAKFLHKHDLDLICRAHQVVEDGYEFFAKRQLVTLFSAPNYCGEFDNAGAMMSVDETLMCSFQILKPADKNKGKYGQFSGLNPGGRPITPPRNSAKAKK

T1: MAS C-terminal tail (Ct) peptide, residues 301 to 325 of human MAS receptor, N-terminal biotin, C316S (human)
T1 sequence (peptide, biotin on the N-terminus): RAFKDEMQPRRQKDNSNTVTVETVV

B1: LIN7A (protein, UniProt O14910 1-233)
chain: MLKPSVTSAPTADMATLTVVQPLTLDRDVARAIELLEKLQESGEVPVHKLQSLKKVLQSEFCTAIREVYQYMHETITVNGCPEFRARATAKATVAAFAASEGHSHPRVVELPKTDEGLGFNVMGGKEQNSPIYISRIIPGGVAERHGGLKRGDQLLSVNGVSVEGEHHEKAVELLKAAKDSVKLVVRYTPKVLEEMEARFEKLRTARRRQQQQLLIQQQQQQQQQQTQQNHMS
B2: LIN7C (protein, UniProt Q9NUP9 1-197)
chain: MAALGEPVRLERDICRAIELLEKLQRSGEVPPQKLQALQRVLQSEFCNAVREVYEHVYETVDISSSPEVRANATAKATVAAFAASEGHSHPRVVELPKTEEGLGFNIMGGKEQNSPIYISRIIPGGIADRHGGLKRGDQLLSVNGVSVEGEHHEKAVELLKAAQGKVKLVVRYTPKVLEEMESRFEKMRSAKRRQQT
B3: LNX1 (protein, UniProt Q8TBB1 1-728)
chain: MNQPESANDPEPLCAVCGQAHSLEENHFYSYPEEVDDDLICHICLQALLDPLDTPCGHTYCTLCLTNFLVEKDFCPMDRKPLVLQHCKKSSILVNKLLNKLLVTCPFREHCTQVLQRCDLEHHFQTSCKGASHYGLTKDRKRRSQDGCPDGCASLTATAPSPEVSAAATISLMTDEPGLDNPAYVSSAEDGQPAISPVDSGRSNRTRARPFERSTIRSRSFKKINRALSVLRRTKSGSAVANHADQGRENSENTTAPEVFPRLYHLIPDGEITSIKINRVDPSESLSIRLVGGSETPLVHIIIQHIYRDGVIARDGRLLPGDIILKVNGMDISNVPHNYAVRLLRQPCQVLWLTVMREQKFRSRNNGQAPDAYRPRDDSFHVILNKSSPEEQLGIKLVRKVDEPGVFIFNVLDGGVAYRHGQLEENDRVLAINGHDLRYGSPESAAHLIQASERRVHLVVSRQVRQRSPDIFQEAGWNSNGSWSPGPGERSNTPKPLHPTITCHEKVVNIQKDPGESLGMTVAGGASHREWDLPIYVISVEPGGVISRDGRIKTGDILLNVDGVELTEVSRSEAVALLKRTSSSIVLKALEVKEYEPQEDCSSPAALDSNHNMAPPSDWSPSWVMWLELPRCLYNCKDIVLRRNTAGSLGFCIVGGYEEYNGNKPFFIKSIVEGTPAYNDGRIRCGDILLAVNGRSTSGMIHACLARLLKELKGRITLTIVSWPGTFL
B4: LNX2 (protein, UniProt Q8N448 1-690)
chain: MGTTSDEMVSVEQTSSSSLNPLCFECGQQHWTRENHLYNYQNEVDDDLVCHICLQPLLQPLDTPCGHTFCYKCLRNFLQEKDFCPLDRKRLHFKLCKKSSILVHKLLDKLLVLCPFSSVCKDVMQRCDLEAHLKNRCPGASHRRVALERRKTSRTQAEIENENGPTLLDPAGTLSPEADCLGTGAVPVERHLTSASLSTWSEEPGLDNPAFEESAGADTTQQPLSLPEGEITTIEIHRSNPYIQLGISIVGGNETPLINIVIQEVYRDGVIARDGRLLAGDQILQVNNYNISNVSHNYARAVLSQPCNTLHLTVLRERRFGNRAHNHSDSNSPREEIFQVALHKRDSGEQLGIKLVRRTDEPGVFILDLLEGGLAAQDGRLSSNDRVLAINGHDLKYGTPELAAQIIQASGERVNLTIARPGKPQPGNTIREAGNHSSSSQHHTPPPYYSRPSSHKDLTQCVTCQEKHITVKKEPHESLGMTVAGGRGSKSGELPIFVTSVPPHGCLARDGRIKRGDVLLNINGIDLTNLSHSEAVAMLKASAASPAVALKALEVQIVEEATQNAEEQPSTFSENEYDASWSPSWVMWLGLPSTLHSCHDIVLRRSYLGSWGFSIVGGYEENHTNQPFFIKTIVLGTPAYYDGRLKCGDMIVAVNGLSTVGMSHSALVPMLKEQRNKVTLTVICWPGSLV
B5: MAGI3 (protein, UniProt Q5TCQ9 1-1481)
chain: MSKTLKKKKHWLSKVQECAVSWAGPPGDFGAEIRGGAERGEFPYLGRLREEPGGGTCCVVSGKAPSPGDVLLEVNGTPVSGLTNRDTLAVIRHFREPIRLKTVKPGKVINKDLRHYLSLQFQKGSIDHKLQQVIRDNLYLRTIPCTTRAPRDGEVPGVDYNFISVEQFKALEESGALLESGTYDGNFYGTPKPPAEPSPFQPDPVDQVLFDNEFDAESQRKRTTSVSKMERMDSSLPEEEEDEDKEAINGSGNAENRERHSESSDWMKTVPSYNQTNSSMDFRNYMMRDETLEPLPKNWEMAYTDTGMIYFIDHNTKTTTWLDPRLCKKAKAPEDCEDGELPYGWEKIEDPQYGTYYVDHLNQKTQFENPVEEAKRKKQLGQVEIGSSKPDMEKSHFTRDPSQLKGVLVRASLKKSTMGFGFTIIGGDRPDEFLQVKNVLKDGPAAQDGKIAPGDVIVDINGNCVLGHTHADVVQMFQLVPVNQYVNLTLCRGYPLPDDSEDPVVDIVAATPVINGQSLTKGETCMNPQDFKPGAMVLEQNGKSGHTLTGDGLNGPSDASEQRVSMASSGSSQPELVTIPLIKGPKGFGFAIADSPTGQKVKMILDSQWCQGLQKGDIIKEIYHQNVQNLTHLQVVEVLKQFPVGADVPLLILRGGPPSPTKTAKMKTDKKENAGSLEAINEPIPQPMPFPPSIIRSGSPKLDPSEVYLKSKTLYEDKPPNTKDLDVFLRKQESGFGFRVLGGDGPDQSIYIGAIIPLGAAEKDGRLRAADELMCIDGIPVKGKSHKQVLDLMTTAARNGHVLLTVRRKIFYGEKQPEDDSSQAFISTQNGSPRLNRAEVPARPAPQEPYDVVLQRKENEGFGFVILTSKNKPPPGVIPHKIGRVIEGSPADRCGKLKVGDHISAVNGQSIVELSHDNIVQLIKDAGVTVTLTVIAEEEHHGPPSGTNSARQSPALQHRPMGQSQANHIPGDRSALEGEIGKDVSTSYRHSWSDHKHLAQPDTAVISVVGSRHNQNLGCYPVELERGPRGFGFSLRGGKEYNMGLFILRLAEDGPAIKDGRIHVGDQIVEINGEPTQGITHTRAIELIQAGGNKVLLLLRPGTGLIPDHGDWDINNPSSSNVIYDEQSPLPPSSHFASIFEESHVPVIEESLRVQICEKAEELKDIVPEKKSTLNENQPEIKHQSLLQKNVSKRDPPSSHGHSNKKNLLKVENGVTRRGRSVSPKKPASQHSEEHLDKIPSPLKNNPKRRPRDQSLSPSKGENKSCQVSTRAGSGQDQCRKSRGRSASPKKQQKIEGSKAPSNAEAKLLEGKSRRIAGYTGSNAEQIPDGKEKSDVIRKDAKQNQLEKSRTRSPEKKIKRMVEKSLPSKMTNKTTSKEVSENEKGKKVTTGETSSSNDKIGENVQLSEKRLKQEPEEKVVSNKTEDHKGKELEAADKNKETGRFKPESSSPVKKTLITPGPWKVPSGNKVTGTIGMAEKRQ
B6: MPP2 (protein, UniProt Q14168 1-576)
chain: MPVAATNSETAMQQVLDNLGSLPSATGAAELDLIFLRGIMESPIVRSLAKVIMVLWFMQQNVFVPMKYMLKYFGAHERLEETKLEAVRDNNLELVQEILRDLAHVAEQSSTAAELAHILQEPHFQSLLETHDSVASKTYETPPPSPGLDPTFSNQPVPPDAVRMVGIRKTAGEHLGVTFRVEGGELVIARILHGGMVAQQGLLHVGDIIKEVNGQPVGSDPRALQELLRNASGSVILKILPSYQEPHLPRQVFVKCHFDYDPARDSLIPCKEAGLRFNAGDLLQIVNQDDANWWQACHVEGGSAGLIPSQLLEEKRKAFVKRDLELTPNSGTLCGSLSGKKKKRMMYLTTKNAEFDRHELLIYEEVARMPPFRRKTLVLIGAQGVGRRSLKNKLIMWDPDRYGTTVPYTSRRPKDSEREGQGYSFVSRGEMEADVRAGRYLEHGEYEGNLYGTRIDSIRGVVAAGKVCVLDVNPQAVKVLRTAEFVPYVVFIEAPDFETLRAMNRAALESGISTKQLTEADLRRTVEESSRIQRGYGHYFDLCLVNSNLERTFRELQTAMEKLRTEPQWVPVSWVY
B7: MPP6 (protein, UniProt Q9NZW5 1-540)
chain: MQQVLENLTELPSSTGAEEIDLIFLKGIMENPIVKSLAKAHERLEDSKLEAVSDNNLELVNEILEDITPLINVDENVAELVGILKEPHFQSLLEAHDIVASKCYDSPPSSPEMNNSSINNQLLPVDAIRILGIHKRAGEPLGVTFRVENNDLVIARILHGGMIDRQGLLHVGDIIKEVNGHEVGNNPKELQELLKNISGSVTLKILPSYRDTITPQQVFVKCHFDYNPYNDNLIPCKEAGLKFSKGEILQIVNREDPNWWQASHVKEGGSAGLIPSQFLEEKRKAFVRRDWDNSGPFCGTISSKKKKKMMYLTTRNAEFDRHEIQIYEEVAKMPPFQRKTLVLIGAQGVGRRSLKNRFIVLNPTRFGTTVPFTSRKPREDEKDGQAYKFVSRSEMEADIKAGKYLEHGEYEGNLYGTKIDSILEVVQTGRTCILDVNPQALKVLRTSEFMPYVVFIAAPELETLRAMHKAVVDAGITTKLLTDSDLKKTVDESARIQRAYNHYFDLIIINDNLDKAFEKLQTAIEKLRMEPQWVPISWVY

Target: T1, MAS C-terminal tail (Ct) peptide, residues 301 to 325 of human MAS receptor, N-terminal biotin, C316S (human)
Assay: affinity purification with mass spectrometry; as a1 and a2; the lysate in which this PDZ hit was found (HEK293, HL-1 or both) is told only in Fig 2B; only the target purified

binding, binds:
B1
B2
B3
B4
B5
B6
B7

Target: T1, MAS C-terminal tail (Ct) peptide, residues 301 to 325 of human MAS receptor, N-terminal biotin, C316S (human)
Assay: affinity purification with mass spectrometry; biotinylated MAS Ct peptide immobilised on NeutrAvidin agarose resin; HEK293 cell lysate (~4 mg), overnight at 4°C; washes with D-PBS; elution with 2% SDS; LC-MS of whole gel lanes; resin alone as control; only the target purified

binding, binds:
MAGI1 (human) (from UniProt Q96QZ7 1-1491)

Target: T1, MAS C-terminal tail (Ct) peptide, residues 301 to 325 of human MAS receptor, N-terminal biotin, C316S (human)
Assay: affinity purification with mass spectrometry; biotinylated MAS Ct peptide immobilised on NeutrAvidin agarose resin; human cardiac tissue lysate (~600 μg), overnight at 4°C; washes with D-PBS; elution with 2% SDS; LC-MS of whole gel lanes; resin alone as control; only the target purified

binding, binds:
HMCN1 (from UniProt Q96RW7 22-5635)
MAGI1 (human) (from UniProt Q96QZ7 1-1491)
TNNI3 (from UniProt P19429 1-210)
CATD (from UniProt P07339)
ARF1 (from UniProt P84077 1-181)
HBA (from UniProt P69905 1-142)
ACACB (human (endogenous in heart tissue))
IF4A2 (from UniProt Q14240 1-407)
EF1A1 (from UniProt P68104 1-462)
GRP78 (from UniProt P11021 19-654)

Target: T1, MAS C-terminal tail (Ct) peptide, residues 301 to 325 of human MAS receptor, N-terminal biotin, C316S (human)
Assay: affinity purification with mass spectrometry; biotinylated MAS Ct peptide immobilised on NeutrAvidin agarose resin; HL-1 cell lysate (~6 mg), overnight at 4°C; washes with D-PBS; elution with 2% SDS; LC-MS of whole gel lanes; resin alone as control; only the target purified

binding, binds:
SORL (from UniProt O88307 82-2215)
PP1A (from UniProt P62137 1-330)
SC23B (from UniProt Q9D662 1-767)
DMD (mouse) (from UniProt P11531 1-3678)
UTRO (mouse) (from UniProt E9Q6R7 1-3430)
RALY (from UniProt Q64012 1-312)
CAMK2G (from UniProt Q923T9 1-529)
MAGI1 (mouse) (from UniProt Q6RHR9 1-1471)

These are yes or no findings as the source states them, for the method shown. Binding seen in cells or lysates may run through a third protein. These calls come from enrichment with a bait or labelling near it, and not all partners need be listed.
